We go through three substances from article PMC8617193.

Amino acid sequences for entries named in this document (tags omitted). A change or cut given only in a name is not applied to a line headed by its entry. Chains listed by the source or under a name are the forms on record and can include a tag or linker.
UniProt Q9HD34: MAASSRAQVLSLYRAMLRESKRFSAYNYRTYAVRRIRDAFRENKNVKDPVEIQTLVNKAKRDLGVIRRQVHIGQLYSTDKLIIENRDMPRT
ISCU2-Y35D (Q9H1K1-1, form named): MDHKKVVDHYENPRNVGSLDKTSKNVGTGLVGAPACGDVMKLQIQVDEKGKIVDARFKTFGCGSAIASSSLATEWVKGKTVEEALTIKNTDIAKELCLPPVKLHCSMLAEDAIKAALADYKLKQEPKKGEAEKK
ISCU2-Y35K (Q9H1K1-1, form named): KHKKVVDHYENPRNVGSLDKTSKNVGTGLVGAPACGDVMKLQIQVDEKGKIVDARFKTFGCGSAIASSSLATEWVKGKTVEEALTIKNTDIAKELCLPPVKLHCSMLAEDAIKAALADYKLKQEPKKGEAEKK
UniProt P0A6A8: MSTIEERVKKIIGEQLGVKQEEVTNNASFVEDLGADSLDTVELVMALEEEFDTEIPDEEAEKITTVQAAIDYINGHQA

In assay [1] the target is ISD11 as crystallised in the (NIAU2)2 complexes (human) (UniProt Q9HD34). Description: crystal structure; (NIAU2)2 complexes with wild-type or mutant ISCU2, 16-18 mg/ml, sitting drop, 0.1 M MES pH 6.5, 22.5% PEG-400, 15 °C; space group P41212; 1.57-1.95 Å; both purified.
Assay [2] addresses ISCU2-Y35D (human) (UniProt Q9H1K1). Description: SEC; anaerobic analytical SEC (Superdex 75 10/300, buffer S) of enzymatic reconstitution mixtures; ISCU2 proteins in 20-fold excess over the other core ISC proteins; detection at 280, 320 and 420 nm; both purified. (In general: In gel filtration, larger molecules generally elute earlier.)
Assay [3] shares this target. The assay is described as follows: cross-linking; 25 µM chemically reconstituted ISCU2 proteins in buffer S, UV irradiation 5 min on ice (di-tyrosine formation); fluorescence (Ex 320 nm, Em 380-480 nm) and reducing SDS-PAGE with anti-HIS immunoblot; both purified. For orientation: A western blot detects proteins with antibodies after separation by electrophoresis.
For the next assay, the target named is ISCU2-Y35K (human) (UniProt Q9H1K1). Description: SEC; anaerobic analytical SEC (Superdex 75 10/300, buffer S) of enzymatic reconstitution mixtures; ISCU2 proteins in 20-fold excess over the other core ISC proteins; detection at 280, 320 and 420 nm; both purified.

Results are given in words; binding and its absence hold for the method and conditions named. Some binding calls cover weakened binding; strength is not graded here.

Take “ACP as crystallised in the (NIAU2)2 complexes (from UniProt P0A6A8 1-78)”: the binding entry in assay [1] is “binds”.

With “ISCU2-Y35D (from UniProt Q9H1K1-1 35-167)”, the binding entry with ISCU2-Y35D (human) [2] is reported as “no binding (tested: 75–100 µM ISCU2 in the reconstitution)”; with ISCU2-Y35D (human) [3], “no binding (tested: 25 µM)”.

Regarding “ISCU2-Y35K (from UniProt Q9H1K1-1 35-167)”, the binding result with ISCU2-Y35K (human) is “no binding (tested: 75–100 µM ISCU2 in the reconstitution)”.
